# Source: article PMC12013085, “Peptides targeting RAB11A–FIP2 complex inhibit HPIV3, RSV, and IAV replication as broad-spectrum antivirals” (Cell & Bioscience, 2025)
# Chains of the proteins cited; added tags and fusions are not shown.
# UniProt P62491, whole entry: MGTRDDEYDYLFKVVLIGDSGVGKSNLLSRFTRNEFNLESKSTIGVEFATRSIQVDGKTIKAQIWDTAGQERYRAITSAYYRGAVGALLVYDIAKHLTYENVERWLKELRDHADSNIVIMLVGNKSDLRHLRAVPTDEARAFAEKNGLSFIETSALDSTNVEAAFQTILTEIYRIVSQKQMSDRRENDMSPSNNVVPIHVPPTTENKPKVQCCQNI
# UniProt Q7L804, whole entry: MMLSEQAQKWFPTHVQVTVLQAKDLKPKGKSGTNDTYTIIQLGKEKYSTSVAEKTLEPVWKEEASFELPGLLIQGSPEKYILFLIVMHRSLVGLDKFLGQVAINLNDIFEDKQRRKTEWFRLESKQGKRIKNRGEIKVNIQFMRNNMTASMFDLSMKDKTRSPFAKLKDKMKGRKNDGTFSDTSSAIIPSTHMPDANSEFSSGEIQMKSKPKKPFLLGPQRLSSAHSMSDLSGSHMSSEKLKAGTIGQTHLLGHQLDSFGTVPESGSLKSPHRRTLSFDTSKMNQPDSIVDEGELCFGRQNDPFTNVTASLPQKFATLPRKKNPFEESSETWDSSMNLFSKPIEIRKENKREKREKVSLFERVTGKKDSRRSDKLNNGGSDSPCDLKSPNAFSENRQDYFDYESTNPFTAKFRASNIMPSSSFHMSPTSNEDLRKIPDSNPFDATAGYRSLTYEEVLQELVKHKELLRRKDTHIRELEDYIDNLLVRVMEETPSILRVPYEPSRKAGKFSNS
# UniProt P06162, whole entry: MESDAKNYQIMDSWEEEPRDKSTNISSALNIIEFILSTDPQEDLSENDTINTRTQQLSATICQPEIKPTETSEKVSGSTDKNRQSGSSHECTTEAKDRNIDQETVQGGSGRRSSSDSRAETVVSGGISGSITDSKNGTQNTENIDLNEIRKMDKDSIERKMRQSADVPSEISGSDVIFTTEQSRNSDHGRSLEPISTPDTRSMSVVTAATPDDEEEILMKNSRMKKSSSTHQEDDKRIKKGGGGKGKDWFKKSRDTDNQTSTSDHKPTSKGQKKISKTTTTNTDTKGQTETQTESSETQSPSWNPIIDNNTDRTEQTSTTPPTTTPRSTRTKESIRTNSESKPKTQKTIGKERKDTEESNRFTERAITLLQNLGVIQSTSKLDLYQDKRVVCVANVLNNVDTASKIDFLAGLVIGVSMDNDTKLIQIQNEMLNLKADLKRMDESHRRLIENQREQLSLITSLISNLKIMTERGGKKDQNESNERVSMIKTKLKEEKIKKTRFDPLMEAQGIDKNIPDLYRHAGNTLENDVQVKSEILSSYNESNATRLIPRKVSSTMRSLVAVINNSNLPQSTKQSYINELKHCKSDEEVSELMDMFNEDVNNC
# Where two headings read alike, the source gives them in different places. Results are given in words; binding and its absence hold for the method and conditions named. In cells and extracts the contact can be indirect. Some binding calls cover weakened binding; strength is not graded here.
# Legend:
# [1] = molecular target: Flag-RAB11A (UniProt P62491); assay: co-IP; 293T cells transfected one by one with FIP2, N and RAB11A for 36 h, lysates mixed for in vitro co-IP; anti-Flag magnetic beads; control peptide Tat (Fig. 5A)
# [2] = molecular target: Flag-RAB11A (UniProt P62491)
Substance,binding [1],binding [2]
RAB11 family interacting protein 2 (FIP2) (from UniProt Q7L804 1-512),binds,
HA-P (from UniProt P06162 1-604),,no binding
